In US20260265538A1, “Aqueous Industrial Product Stabilized Against Microbial Contamination” (Thor GmbH, priority 2023, published 2026):
Counter-ions that a name gives are not always drawn. The source gives many values for each of these; only a part stands here.

Test system: Bacteria mixture 1 (Pseudomonas genus)
Experiment: Repetitive stress test of paints with bacteria mixture 1, semiquantitative evaluation (examples 2 and 3)
Type: cell-based
Set-up: key: 0: No growth; Minimal growth, 1 to 10 colonies visible over the entire streak; 2: Light growth, maximum 100 colonies; Moderate growth, maximum 300 to 400 colonies; Uniform growth, >400 colonies, single colonies still clearly recognizable; 5: Heavy growth, too many colonies to count, but no growth over the entire streak; 6: Full growth, barely any single colonies still apparent, growth over the entire streak
Settings: 6 d
Description: Paints 1 to 3 were mixed and homogenized with various concentrations of the guanidinium salts to be tested.
The batches obtained of the paint thus prepared were inoculated repeatedly with a mixture of different wild-type bacterial strains that are of practical relevance with regard to contamination. These bacteria had previously been isolated from commercial emulsion paints containing conventional preservatives (bacteria mixture 1, Pseudomonas genus), which are microbially contaminated in practice, and commercial so-called preservative-free alkaline emulsion paints (bacteria mixture 2, alkaliphilic bacteria of the Nesterenkonia & Alkalibacterium genus), which are microbially contaminated in practice.
• Pseudomonas spp. (Pseudomonas oleovorans group) DSM 33933 • Pseudomonas aeruginosa DSM 33935 • Pseudomonas oleovorans DSM 33936 • Pseudomonas putida DSM 33937 • Pseudomonas aeruginosa DSM 33938
The inoculum was added to the respective sample in each inoculation at 2% (v/w) as a fresh cell suspension in a physiological saline solution (0.9% NaCl). The cell count of the added inoculum in example 1 was 10^5/ml, in examples 2 to 5 10^9/ml, and in example 6 10^6/ml, each in equal portions consisting of the individual bacterial strains. The cell suspension was produced by growing the individual bacteria at 30° C. for 24 h in liquid culture on a shaker. The medium used to grow the bacteria from bacteria mixture 1 was Müller-Hinton liquid medium. Bacteria from bacteria mixture 2 were grown in Müller-Hinton liquid medium that had been adjusted to pH 9.5-9.7 with an alkaline buffer solution beforehand. After growing, the individual liquid cultures were centrifuged, and the cells were resuspended in physiological saline solution. In order to adjust the mixture to the desired cell count, the individual bacteria suspensions, if necessary, were diluted accordingly before being combined with saline solution. The cell count of the inoculum was determined in each case by chamber counting.
In examples 2 to 6, what is called a repetitive stress test with bacteria was conducted by inoculating the samples at particular time intervals repeatedly with a bacteria suspension having a cell count of 10^9/ml (2% v/w) and monitoring the evolution of the bacteria by a semiquantitative evaluation method. After each inoculation, the samples were incubated at 30° C. for 6 days (bacteria mixture 1 and 3) or 7 and 14 days (bacteria mixture 2), and after these periods bacterial infestation was evaluated semiquantitatively in each case. For this purpose, an aliquot was taken from each sample after homogenization using a sterile plastic inoculation loop (10 μl) and streaked evenly on agar plates (bacteria mixture 1 and 3 on tryptic soy agar, bacteria mixture 2 on DSMZ 31 alkaline nutrient agar). The streaked agar plates were then incubated at 30° C. for 48 h (bacteria mixture 1 and 3) or 5 to 7 days (bacteria mixture 2). After incubation, the bacterial colonies grown on the agar plates were visually evaluated and quantified according to the following scheme:
A total of 3 inoculation cycles was performed in each repetitive stress test.
Inoculation 2% (w/v) with Bacteria Mixture 1, 10^9 CFU/ml
2% (w/v) Inoculation with Bacteria Mixture 1, […]

Structure (SMILES): N=C(N)N [guanidine hydrochloride]
- Bacterial growth after inoculation (Table 2, Paint 1, +0.25% guanidine hydrochloride (1545 ppm guanidine), pH 7.7, 1. inoculation): 6
- Bacterial growth after inoculation (Table 2, Paint 1, +0.25% guanidine hydrochloride (1545 ppm guanidine), pH 7.7, 2. inoculation): 6
- Bacterial growth after inoculation (Table 2, Paint 1, +0.25% guanidine hydrochloride (1545 ppm guanidine), pH 7.7, 3. inoculation): 6
- Bacterial growth after inoculation (Table 2, Paint 1, +0.25% guanidine hydrochloride (1545 ppm guanidine), pH 8.5 adjusted with NaOH, 1. inoculation): 3 (Moderate growth, maximum 300 to 400 colonies)
- Bacterial growth after inoculation (Table 2, Paint 1, +0.25% guanidine hydrochloride (1545 ppm guanidine), pH 8.5 adjusted with NaOH, 2. inoculation): 6
- Bacterial growth after inoculation (Table 2, Paint 1, +0.25% guanidine hydrochloride (1545 ppm guanidine), pH 8.5 adjusted with NaOH, 3. inoculation): 6
- Bacterial growth after inoculation (Table 2, Paint 1, +0.25% guanidine hydrochloride (1545 ppm guanidine), pH 9.0 adjusted with NaOH, 1. inoculation): 0
- Bacterial growth after inoculation (Table 2, Paint 1, +0.25% guanidine hydrochloride (1545 ppm guanidine), pH 9.0 adjusted with NaOH, 2. inoculation): 4 (Uniform growth, >400 colonies, single colonies still clearly recognizable)
- Bacterial growth after inoculation (Table 2, Paint 1, +0.25% guanidine hydrochloride (1545 ppm guanidine), pH 9.0 adjusted with NaOH, 3. inoculation): 6
- Bacterial growth after inoculation (Table 2, Paint 1, +0.5% guanidine hydrochloride (3090 ppm guanidine), pH 7.6, 1. inoculation): 6
- Bacterial growth after inoculation (Table 2, Paint 1, +0.5% guanidine hydrochloride (3090 ppm guanidine), pH 7.6, 2. inoculation): 6
- Bacterial growth after inoculation (Table 2, Paint 1, +0.5% guanidine hydrochloride (3090 ppm guanidine), pH 7.6, 3. inoculation): 6
- Bacterial growth after inoculation (Table 2, Paint 1, +0.5% guanidine hydrochloride (3090 ppm guanidine), pH 8.5 adjusted with NaOH, 1. inoculation): 0
- Bacterial growth after inoculation (Table 2, Paint 1, +0.5% guanidine hydrochloride (3090 ppm guanidine), pH 8.5 adjusted with NaOH, 2. inoculation): 0
- Bacterial growth after inoculation (Table 2, Paint 1, +0.5% guanidine hydrochloride (3090 ppm guanidine), pH 8.5 adjusted with NaOH, 3. inoculation): 6
- Bacterial growth after inoculation (Table 2, Paint 1, +0.5% guanidine hydrochloride (3090 ppm guanidine), pH 9.0 adjusted with NaOH, 1. inoculation): 0
- Bacterial growth after inoculation (Table 2, Paint 1, +0.5% guanidine hydrochloride (3090 ppm guanidine), pH 9.0 adjusted with NaOH, 2. inoculation): 0
- Bacterial growth after inoculation (Table 2, Paint 1, +0.5% guanidine hydrochloride (3090 ppm guanidine), pH 9.0 adjusted with NaOH, 3. inoculation): 0
- Bacterial growth after inoculation (Table 2, Paint 2, +0.25% guanidine hydrochloride (1545 ppm guanidine), pH 7.8, 1. inoculation): 6
- Bacterial growth after inoculation (Table 2, Paint 2, +0.25% guanidine hydrochloride (1545 ppm guanidine), pH 7.8, 2. inoculation): 6
- Bacterial growth after inoculation (Table 2, Paint 2, +0.25% guanidine hydrochloride (1545 ppm guanidine), pH 7.8, 3. inoculation): 6
- Bacterial growth after inoculation (Table 2, Paint 2, +0.25% guanidine hydrochloride (1545 ppm guanidine), pH 8.4 adjusted with NaOH, 1. inoculation): 6
- Bacterial growth after inoculation (Table 2, Paint 2, +0.25% guanidine hydrochloride (1545 ppm guanidine), pH 8.4 adjusted with NaOH, 2. inoculation): 6
- Bacterial growth after inoculation (Table 2, Paint 2, +0.25% guanidine hydrochloride (1545 ppm guanidine), pH 8.4 adjusted with NaOH, 3. inoculation): 6
- Bacterial growth after inoculation (Table 2, Paint 2, +0.25% guanidine hydrochloride (1545 ppm guanidine), pH 9.0 adjusted with NaOH, 1. inoculation): 0
- Bacterial growth after inoculation (Table 2, Paint 2, +0.25% guanidine hydrochloride (1545 ppm guanidine), pH 9.0 adjusted with NaOH, 2. inoculation): 0
- Bacterial growth after inoculation (Table 2, Paint 2, +0.25% guanidine hydrochloride (1545 ppm guanidine), pH 9.0 adjusted with NaOH, 3. inoculation): 6
- Bacterial growth after inoculation (Table 2, Paint 2, +0.5% guanidine hydrochloride (3090 ppm guanidine), pH 7.7, 1. inoculation): 6
- Bacterial growth after inoculation (Table 2, Paint 2, +0.5% guanidine hydrochloride (3090 ppm guanidine), pH 7.7, 2. inoculation): 6
- Bacterial growth after inoculation (Table 2, Paint 2, +0.5% guanidine hydrochloride (3090 ppm guanidine), pH 7.7, 3. inoculation): 6
- Bacterial growth after inoculation (Table 2, Paint 2, +0.5% guanidine hydrochloride (3090 ppm guanidine), pH 8.4 adjusted with NaOH, 1. inoculation): 0
- Bacterial growth after inoculation (Table 2, Paint 2, +0.5% guanidine hydrochloride (3090 ppm guanidine), pH 8.4 adjusted with NaOH, 2. inoculation): 0
- Bacterial growth after inoculation (Table 2, Paint 2, +0.5% guanidine hydrochloride (3090 ppm guanidine), pH 8.4 adjusted with NaOH, 3. inoculation): 6
- Bacterial growth after inoculation (Table 2, Paint 2, +0.5% guanidine hydrochloride (3090 ppm guanidine), pH 9.0 adjusted with NaOH, 1. inoculation): 0
- Bacterial growth after inoculation (Table 2, Paint 2, +0.5% guanidine hydrochloride (3090 ppm guanidine), pH 9.0 adjusted with NaOH, 2. inoculation): 0
- Bacterial growth after inoculation (Table 2, Paint 2, +0.5% guanidine hydrochloride (3090 ppm guanidine), pH 9.0 adjusted with NaOH, 3. inoculation): 3 (Moderate growth, maximum 300 to 400 colonies)
- Bacterial growth after inoculation (Table 3, Paint 1, +0.5% guanidine hydrochloride (3090 ppm guanidine), pH 7.6, 1. inoculation): 6
- Bacterial growth after inoculation (Table 3, Paint 1, +0.5% guanidine hydrochloride (3090 ppm guanidine), pH 7.6, 2. inoculation): 6
- Bacterial growth after inoculation (Table 3, Paint 1, +0.5% guanidine hydrochloride (3090 ppm guanidine), pH 7.6, 3. inoculation): 6
- Bacterial growth after inoculation (Table 3, Paint 1, +0.6% guanidine hydrochloride (3708 ppm guanidine), pH 7.6, 1. inoculation): 6
- Bacterial growth after inoculation (Table 3, Paint 1, +0.6% guanidine hydrochloride (3708 ppm guanidine), pH 7.6, 2. inoculation): 6
- Bacterial growth after inoculation (Table 3, Paint 1, +0.6% guanidine hydrochloride (3708 ppm guanidine), pH 7.6, 3. inoculation): 6
- Bacterial growth after inoculation (Table 3, Paint 1, +0.7% guanidine hydrochloride (4326 ppm guanidine), pH 7.5, 1. inoculation): 5
- Bacterial growth after inoculation (Table 3, Paint 1, +0.7% guanidine hydrochloride (4326 ppm guanidine), pH 7.5, 2. inoculation): 6
- Bacterial growth after inoculation (Table 3, Paint 1, +0.7% guanidine hydrochloride (4326 ppm guanidine), pH 7.5, 3. inoculation): 6
- Bacterial growth after inoculation (Table 3, Paint 1, +0.8% guanidine hydrochloride (4944 ppm guanidine), pH 7.5, 1. inoculation): 1 (Minimal growth, 1 to 10 colonies visible over the entire streak)
- Bacterial growth after inoculation (Table 3, Paint 1, +0.8% guanidine hydrochloride (4944 ppm guanidine), pH 7.5, 2. inoculation): 1 (Minimal growth, 1 to 10 colonies visible over the entire streak)
- Bacterial growth after inoculation (Table 3, Paint 1, +0.8% guanidine hydrochloride (4944 ppm guanidine), pH 7.5, 3. inoculation): 3 (Moderate growth, maximum 300 to 400 colonies)
- Bacterial growth after inoculation (Table 3, Paint 1, +0.9% guanidine hydrochloride (5562 ppm guanidine), pH 7.5, 1. inoculation): 0
- Bacterial growth after inoculation (Table 3, Paint 1, +0.9% guanidine hydrochloride (5562 ppm guanidine), pH 7.5, 2. inoculation): 0
- Bacterial growth after inoculation (Table 3, Paint 1, +0.9% guanidine hydrochloride (5562 ppm guanidine), pH 7.5, 3. inoculation): 0
- Bacterial growth after inoculation (Table 3, Paint 2, +0.5% guanidine hydrochloride (3090 ppm guanidine), pH 7.7, 1. inoculation): 6
- Bacterial growth after inoculation (Table 3, Paint 2, +0.5% guanidine hydrochloride (3090 ppm guanidine), pH 7.7, 2. inoculation): 6
- Bacterial growth after inoculation (Table 3, Paint 2, +0.5% guanidine hydrochloride (3090 ppm guanidine), pH 7.7, 3. inoculation): 6
- Bacterial growth after inoculation (Table 3, Paint 2, +0.6% guanidine hydrochloride (3708 ppm guanidine), pH 7.7, 1. inoculation): 4 (Uniform growth, >400 colonies, single colonies still clearly recognizable)
- Bacterial growth after inoculation (Table 3, Paint 2, +0.6% guanidine hydrochloride (3708 ppm guanidine), pH 7.7, 2. inoculation): 6
- Bacterial growth after inoculation (Table 3, Paint 2, +0.6% guanidine hydrochloride (3708 ppm guanidine), pH 7.7, 3. inoculation): 6
- Bacterial growth after inoculation (Table 3, Paint 2, +0.7% guanidine hydrochloride (4326 ppm guanidine), pH 7.7, 1. inoculation): 3 (Moderate growth, maximum 300 to 400 colonies)
- Bacterial growth after inoculation (Table 3, Paint 2, +0.7% guanidine hydrochloride (4326 ppm guanidine), pH 7.7, 2. inoculation): 6
- Bacterial growth after inoculation (Table 3, Paint 2, +0.7% guanidine hydrochloride (4326 ppm guanidine), pH 7.7, 3. inoculation): 6
- Bacterial growth after inoculation (Table 3, Paint 2, +0.8% guanidine hydrochloride (4944 ppm guanidine), pH 7.6, 1. inoculation): 0
- Bacterial growth after inoculation (Table 3, Paint 2, +0.8% guanidine hydrochloride (4944 ppm guanidine), pH 7.6, 2. inoculation): 0
- Bacterial growth after inoculation (Table 3, Paint 2, +0.8% guanidine hydrochloride (4944 ppm guanidine), pH 7.6, 3. inoculation): 0
- Bacterial growth after inoculation (Table 3, Paint 2, +0.9% guanidine hydrochloride (5562 ppm guanidine), pH 7.6, 1. inoculation): 0
- Bacterial growth after inoculation (Table 3, Paint 2, +0.9% guanidine hydrochloride (5562 ppm guanidine), pH 7.6, 2. inoculation): 0
- Bacterial growth after inoculation (Table 3, Paint 2, +0.9% guanidine hydrochloride (5562 ppm guanidine), pH 7.6, 3. inoculation): 0
